Laboratory results taken from patent US20220048884A1, “NRF2 ACTIVATOR” (BIOGEN MA INC., priority 2017, published 2022).
Some entries share one result that the patent states for a list of compounds.

Tested on: NRF2
Assay: PathHunter Nuclear Translocation assay (DiscoverX), agonist format
Format: cell-based
Details: 6 hours incubation, 10 concentrations, 30 μM top concentration
Source text: Vehicle concentration was 1%.
Microplates were read following signal generation with a PerkinElmer Envision™ instrument for chemiluminescent signal detection.

SMILES	EC50
COc1cc(C)c([C@H](CC(=O)O)c2ccc3c(c2)CN(C(=O)c2cc(C)ccc2C)CC3)cn1 [Example 93, (R)-3-(2-(2,5-dimethylbenzoyl)-1,2,3,4-tetrahydroisoquinolin-7-yl)-3-(6-methoxy-4-methylpyridin-3-yl)propanoic Acid]	< 10 µM
COc1cc(C)c([C@@H](CC(=O)O)c2ccc3c(c2)CN(C(=O)c2cc(C)ccc2F)CC3)cn1 [Example 94, (S)-3-(2-(2-fluoro-5-methylbenzoyl)-1,2,3,4-tetrahydroisoquinolin-7-yl)-3-(6-methoxy-4-methylpyridin-3-yl)propanoic acid]	< 10 µM
COc1cc(C)c([C@H](CC(=O)O)c2ccc3c(c2)CN(C(=O)c2cc(C)ccc2F)CC3)cn1 [Example 95, (R)-3-(2-(2-fluoro-5-methylbenzoyl)-1,2,3,4-tetrahydroisoquinolin-7-yl)-3-(6-methoxy-4-methylpyridin-3-yl)propanoic Acid]	< 10 µM
COc1cc(C)c(C(CC(=O)O)c2ccc3c(c2)CN(C(=O)c2ccc(C)c(C)c2)CC3)cn1 (stereo not shown) [Example 96, 3-[2-(3,4-dimethylbenzoyl)-3,4-dihydro-1H-isoquinolin-7-yl]-3-(6-methoxy-4-methyl-3-pyridyl)propanoic Acid]	< 10 µM
COc1cc(C)c(C(c2ccc3c(c2)CN(C(=O)c2ccc(C)c(C)c2)CC3)C(C)C(=O)O)cn1 (stereo not shown) [Example 97, 3-[2-(3,4-dimethylbenzoyl)-3,4-dihydro-1H-isoquinolin-7-yl]-3-(6-methoxy-4-methyl-3-pyridyl)-2-methyl-propanoic Acid]	< 1 µM
COc1ccc(C(CC(=O)O)c2ccc3c(c2)CN(C(=O)c2ccc(C)c(C)c2)CC3)c(C)c1 (stereo not shown) [Example 98, 3-(2-(3,4-dimethylbenzoyl)-1,2,3,4-tetrahydroisoquinolin-7-yl)-3-(4-methoxy-2-methylphenyl)propanoic Acid]	> 10 µM
Cc1ccc(C(=O)N2CCc3ccc(C(CC(=O)O)c4ccc5c(nnn5C)c4C)cc3C2)cc1C (stereo not shown) [Example 99, 3-(1,4-dimethylbenzotriazol-5-yl)-3-[2-(3,4-dimethylbenzoyl)-3,4-dihydro-1H-isoquinolin-7-yl]propanoic Acid]	< 1 µM
Cc1ccc(C(=O)N2CCc3ccc([C@H](CC(=O)O)c4ccc5c(nnn5C)c4C)cc3C2)cc1C [Example 100, (3S)-3-(1,4-dimethylbenzotriazol-5-yl)-3-[2-(3,4-dimethylbenzoyl)-3,4-dihydro-1H-isoquinolin-7-yl]propanoic acid]	< 1 µM
Cc1ccc(C(=O)N2CCc3ccc([C@@H](CC(=O)O)c4ccc5c(nnn5C)c4C)cc3C2)cc1C [Example 101, (3R)-3-(1,4-dimethylbenzotriazol-5-yl)-3-[2-(3,4-dimethylbenzoyl)-3,4-dihydro-1H-isoquinolin-7-yl]propanoic Acid]	< 10 µM
CCn1nnc2c(C)c([C@H](c3ccc4c(c3)CN(C(=O)c3ccc(C)c(C)c3)CC4)[C@H](C)C(=O)O)ccc21 [Example 104, (2S,3S)-3-[2-(3,4-dimethylbenzoyl)-3,4-dihydro-1H-isoquinolin-7-yl]-3-(1-ethyl-4-methyl-benzotriazol-5-yl)-2-methyl-propanoic acid]	< 1 µM
CCn1nnc2c(C)c([C@H](c3ccc4c(c3)CN(C(=O)c3ccc(C)c(C)c3)CC4)[C@@H](C)C(=O)O)ccc21 [Example 105, (2R,3S)-3-[2-(3,4-dimethylbenzoyl)-3,4-dihydro-1H-isoquinolin-7-yl]-3-(1-ethyl-4-methyl-benzotriazol-5-yl)-2-methyl-propanoic acid]	< 1 µM
CCn1nnc2c(C)c(C(CC(=O)O)c3ccc4c(c3)CN(C(=O)c3cc(C)c(C)c(C)c3)CC4)ccc21 (stereo not shown) [Example 106, 3-(1-ethyl-4-methyl-benzotriazol-5-yl)-3-[2-(3,4,5-trimethylbenzoyl)-3,4-dihydro-1H-isoquinolin-7-yl]propanoic acid]	< 1 µM
CCn1nnc2c(C)c([C@@H](CC(=O)O)c3ccc4c(c3)CN(C(=O)c3cc(C)c(C)c(C)c3)CC4)ccc21 [Example 107, (3S)-3-(1-ethyl-4-methyl-benzotriazol-5-yl)-3-[2-(3,4,5-trimethylbenzoyl)-3,4-dihydro-1H-isoquinolin-7-yl]propanoic acid]	< 1 µM
C=CCc1ccc(C(=O)N2CCc3ccc(C(CC(=O)O)c4ccc5c(nnn5CC)c4C)cc3C2)cc1 (stereo not shown) [Example 112, 3-[2-(4-allylbenzoyl)-3,4-dihydro-1H-isoquinolin-7-yl]-3-(1-ethyl-4-methyl-benzotriazol-5-yl)propanoic acid]	< 1 µM
CCn1nnc2c(C)c(C(CC(=O)O)c3ccc4c(c3)CN(C(=O)c3cc(C)c(C)cc3C)CC4)ccc21 (stereo not shown) [Example 113, 3-(1-ethyl-4-methyl-1H-benzo[d][1,2,3]triazol-5-yl)-3-(2-(2,4,5-trimethylbenzoyl)-1,2,3,4-tetrahydroisoquinolin-7-yl)propanoic acid]	< 1 µM
CCn1nnc2c(C)c([C@@H](CC(=O)O)c3ccc4c(c3)CN(C(=O)c3cc(C)c(C)cc3C)CC4)ccc21 [Example 114, (3S)-3-(1-ethyl-4-methyl-benzotriazol-5-yl)-3-[2-(2,4,5-trimethylbenzoyl)-3,4-dihydro-1H-isoquinolin-7-yl]propanoic acid]	< 1 µM

SMILES	EC50
CCn1nnc2c(C)c([C@@H](CC(=O)N(C)O)c3ccc4c(c3)CN(C(=O)c3ccc(C)c(C)c3)CC4)ccc21 [Example 123, (S)-3-(2-(3,4-dimethylbenzoyl)-1,2,3,4-tetrahydroisoquinolin-7-yl)-3-(1-ethyl-4-methyl-1H-benzo[d][1,2,3]triazol-5-yl)-N-hydroxy-N-methylpropanamide]	< 1 µM
CCn1nnc2c(C)c([C@@H](CC(=O)CO)c3ccc4c(c3)CN(C(=O)c3ccc(C)c(C)c3)CC4)ccc21 [Example 125, (S)-4-(2-(3,4-dimethylbenzoyl)-1,2,3,4-tetrahydroisoquinolin-7-yl)-4-(1-ethyl-4-methyl-1H-benzo[d][1,2,3]triazol-5-yl)-1-hydroxybutan-2-one]	< 10 µM
CCn1nnc2c(C)c([C@@H](CC(=O)OC)c3ccc4c(c3)CN(C(=O)c3ccc(C)c(C)c3)CC4)ccc21 [Example 127, methyl (3S)-3-[2-(3,4-dimethylbenzoyl)-3,4-dihydro-1H-isoquinolin-7-yl]-3-(1-ethyl-4-methyl-benzotriazol-5-yl)propanoate]	< 10 µM
CCn1nnc2c(C)c([C@@H](CC(=O)ON)c3ccc4c(c3)CN(C(=O)c3ccc(C)c(C)c3)CC4)ccc21 [Example 128, amino (3S)-3-[2-(3,4-dimethylbenzoyl)-3,4-dihydro-1H-isoquinolin-7-yl]-3-(1-ethyl-4-methyl-benzotriazol-5-yl)propanoate]	< 1 µM
CCn1nnc2c(C)c([C@@H](CC(=O)NO)c3ccc4c(c3)CN(C(=O)c3ccc(C)c(C)c3)CC4)ccc21 [Example 129, (3S)-3-[2-(3,4-dimethylbenzoyl)-3,4-dihydro-1H-isoquinolin-7-yl]-3-(1-ethyl-4-methyl-benzotriazol-5-yl)propanehydroxamic acid]	< 10 µM
CCn1nnc2c(C)c([C@@H](CC(N)=O)c3ccc4c(c3)CN(C(=O)c3ccc(C)c(C)c3)CC4)ccc21 [Example 132, (3S)-3-[2-(3,4-dimethylbenzoyl)-3,4-dihydro-1H-isoquinolin-7-yl]-3-(1-ethyl-4-methyl-benzotriazol-5-yl)propanamide]	< 10 µM
CCn1nnc2c(C)c([C@@H](CC(=O)O)c3ccc4c(n3)CN(C(=O)c3ccc(C)c(C)c3)CC4)ccc21 [Example 134, (3R)-3-[7-(3,4-dimethylbenzoyl)-6,8-dihydro-5H-1,7-naphthyridin-2-yl]-3-(1-ethyl-4-methyl-benzotriazol-5-yl)propanoic acid]	< 1 µM
CCn1nnc2c(C)c([C@H](CC(=O)O)c3ccc4c(n3)CN(C(=O)c3ccc(C)c(C)c3)CC4)ccc21 [Example 135, (3S)-3-[7-(3,4-dimethylbenzoyl)-6,8-dihydro-5H-1,7-naphthyridin-2-yl]-3-(1-ethyl-4-methyl-benzotriazol-5-yl)propanoic acid]	< 10 µM
CCn1nnc2c(C)c(C(CC#N)c3ccc4c(c3)CN(C(=O)c3ccc(C)c(C)c3)CC4)ccc21 (stereo not shown) [Example 136, 3-(2-(3,4-dimethylbenzoyl)-1,2,3,4-tetrahydroisoquinolin-7-yl)-3-(1-ethyl-4-methyl-1H-benzo[d][1,2,3]triazol-5-yl)propanenitrile]	< 10 µM
CCn1nnc2c(C)c(C(c3ccc4c(c3)CN(C(=O)c3ccc(C)c(C)c3)CC4)C(C)C#N)ccc21 (stereo not shown) [Example 137, 3-[2-(3,4-dimethylbenzoyl)-3,4-dihydro-1H-isoquinolin-7-yl]-3-(1-ethyl-4-methyl-benzotriazol-5-yl)-2-methyl-propanenitrile]	> 10 µM
Cc1ccc(C(=O)N2CCc3ccc(C(CC(=O)O)c4cc5c(cc4C)OCO5)cc3C2)cc1C (stereo not shown) [Example 138, 3-[2-(3,4-dimethylbenzoyl)-3,4-dihydro-1H-isoquinolin-7-yl]-3-(6-methyl-1,3-benzodioxol-5-yl)propanoic acid]	< 10 µM
Cc1ccc(C(=O)N2CCc3ccc([C@H](CC(=O)O)c4cc5c(cc4C)OCO5)cc3C2)cc1C [Example 139, (3S)-3-[2-(3,4-dimethylbenzoyl)-3,4-dihydro-1H-isoquinolin-7-yl]-3-(6-methyl-1,3-benzodioxol-5-yl)propanoic acid]	> 10 µM
Cc1ccc(C(=O)N2CCc3ccc([C@@H](CC(=O)O)c4cc5c(cc4C)OCO5)cc3C2)cc1C [Example 140, (3R)-3-[2-(3,4-dimethylbenzoyl)-3,4-dihydro-1H-isoquinolin-7-yl]-3-(6-methyl-1,3-benzodioxol-5-yl)propanoic acid]	< 10 µM
Cc1ccc(C(=O)N2CCc3ccc(C(CC(=O)O)c4cc5c(cc4C)OCCO5)cc3C2)cc1C (stereo not shown) [Example 141, 3-(2-(3,4-dimethylbenzoyl)-1,2,3,4-tetrahydroisoquinolin-7-yl)-3-(7-methyl-2,3-dihydrobenzo[b][1,4]dioxin-6-yl)propanoic acid]	< 10 µM
Cc1ccc(C(=O)N2CCc3ccc([C@H](CC(=O)O)c4cc5c(cc4C)OCCO5)cc3C2)cc1C [Example 142, (3S)-3-[2-(3,4-dimethylbenzoyl)-3,4-dihydro-1H-isoquinolin-7-yl]-3-(7-methyl-2,3-dihydro-1,4-benzodioxin-6-yl)propanoic acid]	> 10 µM
